PubChem BioAssay AID1259424 | University of Nebraska Medical Center – 2018

- Purpose: 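Seek colon cancer survival genes behaving like KSR1, using a six-gene signature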 (primary screen)
- System: human HCT116 colon cancer cells
- Reagent: siRNA pool against human genes, 50 nM
- Detection: 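Six signature mRNAs by branched-DNA multiplex assay, scaled to two housekeeping genes and non-targeting median, log2; matched to mean KSR1 knockdown profile by Pearson correlation and euclidean distance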
- Reading the numbers: mean correlation with KSR1 profile: higher = expression change more like KSR1 knockdown
Here is an unselected part of about 14,000 reagents. 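Higher correlation or smaller distance means closer resemblance to KSR1 loss; control wells, including KSR1 knockdowns, recur on many plates.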 Further read-outs or replicates are left out here. Reagent sequences are not shown. Not given: the time to read-out.

gene symbol | PubChem SID | mean correlation with KSR1 profile
FGF9 (GeneID 2254) | SID363993221 | 0.84
MYL1 (GeneID 4632) | SID364004477 | -0.0166
TMEM237 (GeneID 65062) | SID364004715 | -0.144
MTNR1A (GeneID 4543) | SID363996820 | 0.885
PSME1 (GeneID 5720) | SID364004879 | -0.57
VAMP1 (GeneID 6843) | SID363998670 | 0.111
RRP12 (GeneID 23223) | SID363999348 | -0.248
NAB1 (GeneID 4664) | SID363996826 | -0.654
HOXB1 (GeneID 3211) | SID363993348 | -0.366
CTNND2 (GeneID 1501) | SID363992612 | 0.0934
MT-ND4 (GeneID 4538) | SID364004844 | -0.77
UBQLN2 (GeneID 29978) | SID363998522 | -0.279
TAB1 (GeneID 10454) | SID363996957 | -0.133
PRC1 (GeneID 9055) | SID363995034 | -0.303
NPY (GeneID 4852) | SID363992190 | 0.178
SIK1 (GeneID 150094) | SID364004824 | 0.476
RALGPS2 (GeneID 55103) | SID364000726 | 0.29
CDC6 (GeneID 990) | SID363992539 | 0.396
SLURP1 (GeneID 57152) | SID364001689 | -0.258
KIF13B (GeneID 23303) | SID363999382 | 0.407
ZHX2 (GeneID 22882) | SID363999213 | -0.152
TRAT1 (GeneID 50852) | SID364000079 | 0.279

The list goes on (4 carried over from the part before).
gene symbol | PubChem SID | mean correlation with KSR1 profile
SLURP1 (GeneID 57152) | SID364001689 | -0.258
KIF13B (GeneID 23303) | SID363999382 | 0.407
ZHX2 (GeneID 22882) | SID363999213 | -0.152
TRAT1 (GeneID 50852) | SID364000079 | 0.279
CBX2 (GeneID 84733) | SID364004111 | -0.32
INS (GeneID 3630) | SID363991542 | 0.505
CEP78 (GeneID 84131) | SID364005281 | 0.428
EPS8L2 (GeneID 64787) | SID364002546 | 0.0575
HNRNPC (GeneID 3183) | SID363995477 | -0.301
DAZ1 (GeneID 1617) | SID363995091 | 0.671
C19orf12 (GeneID 83636) | SID364003631 | 0.278
ACADM (GeneID 34) | SID363991355 | 0.761
UPK2 (GeneID 7379) | SID363997531 | 0.23
USP16 (GeneID 10600) | SID363997257 | -0.475
ADGRL3 (GeneID 23284) | SID363999374 | 0.829
GSKIP (GeneID 51527) | SID364000128 | -0.307
